Experimental data reported in PMC3968024.
No constants are given. Whether binding was seen depends on the method and setting. For some assays here: In cells and extracts the contact can be indirect. Some entries that bind do so weakly or less than the wild type. Tags and fused reporters may be left off the sequences shown. Blank lines part the entries; values can stand above or below the binder they belong to.

Legend:
[1] = biological target: T1, FANCC N-terminal caspase cleavage fragment FANCC^1-306 (yeast two-hybrid fusion) (UniProt Q00597); assay: two-hybrid; directed assays; UNC5A and FANCC constructs in pGBKT7 or pGADT7 co-transformed into AH109; growth on stringent nutritional selection; at least three independent transformations
T1 sequence: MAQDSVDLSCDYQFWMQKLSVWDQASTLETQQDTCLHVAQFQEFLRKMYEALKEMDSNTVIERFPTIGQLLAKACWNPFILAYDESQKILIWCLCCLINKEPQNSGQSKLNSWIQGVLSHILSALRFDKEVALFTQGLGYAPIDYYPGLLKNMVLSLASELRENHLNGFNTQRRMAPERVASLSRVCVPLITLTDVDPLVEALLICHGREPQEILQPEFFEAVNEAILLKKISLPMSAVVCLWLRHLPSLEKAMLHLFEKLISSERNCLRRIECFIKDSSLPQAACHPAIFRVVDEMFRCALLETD

[2] = biological target: T2, HA-tagged UNC5A intracellular domain (HA-UNC5A^ICD) (human) (UniProt Q6ZN44); assay: co-IP; HEK293T transiently transfected with both proteins; lysis in 50 mM Tris-HCl, 150 mM NaCl, 1% Triton X-100; protein A-agarose beads; Western blotting; control IgG
T2 sequence: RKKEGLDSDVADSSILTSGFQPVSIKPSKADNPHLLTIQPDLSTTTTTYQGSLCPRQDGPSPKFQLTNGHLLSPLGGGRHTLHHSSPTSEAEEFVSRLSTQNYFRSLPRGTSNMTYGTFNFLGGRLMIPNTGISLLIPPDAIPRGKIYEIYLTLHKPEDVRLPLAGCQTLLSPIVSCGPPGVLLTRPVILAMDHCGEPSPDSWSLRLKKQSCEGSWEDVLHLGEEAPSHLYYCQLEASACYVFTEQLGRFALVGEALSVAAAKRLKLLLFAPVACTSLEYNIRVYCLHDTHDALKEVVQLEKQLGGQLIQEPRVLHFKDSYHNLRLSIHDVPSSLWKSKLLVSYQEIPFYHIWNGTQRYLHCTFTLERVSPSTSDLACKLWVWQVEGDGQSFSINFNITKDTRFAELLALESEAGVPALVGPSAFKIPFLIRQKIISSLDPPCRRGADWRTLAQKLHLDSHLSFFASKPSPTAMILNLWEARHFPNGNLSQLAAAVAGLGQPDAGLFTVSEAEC

binding [1]: binds
B1: UNC5A intracellular domain UNC5A^ICD (yeast two-hybrid fusion) (domain or fragment, UniProt Q6ZN44 329-842)
chain: T2 sequence

binding [2]: binds
B2: EGFP-tagged FANCC^1-306 (domain or fragment, UniProt Q00597 1-306)
chain: T1 sequence
